Laboratory results reported in PubChem BioAssay AID540276 (National Center for Advancing Translational Sciences (NCATS), 2011).
In all, about 300,000 compounds went through this assay and about 5,400 (1.8%) were called active. Inconclusive results, whose numbers are uncertain, are shown with a selection of clear calls. Calls come from the whole dose curve; tested in HEK293 cells. Where the call is inconclusive, the potency comes from a doubtful curve fit.

Test: qHTS for inhibitors of binding or entry into cells for Marburg Virus
Details: Marburg virus pseudotyped entry inhibition, cell reporter; series mostly up to 37.8 µM
Potency is the fitted concentration of half-maximal effect.

Compound | Potency
S=C(NC1CCCCC1)N(CCc1nc2ccccc2[nH]1)C1CCCC1 | inconclusive: 0.073 µM [inhibitor, full curve, poor fit]
Oc1c(Cl)cc(Cl)cc1CNc1ccc(Br)cn1 | inactive
COc1ccc(-c2cn(CCO)nc2-c2ccc(OC)cc2)cc1 | inconclusive: 7.08 µM [inhibitor, full curve, poor fit]
CC(=O)OC1C2(CC3N4C(=O)C5(CO)SSC4(CC31O)C(=O)N5C)OC(C)C(C)(C)C2=O (stereo unspecified) | active: 1.41 µM
C(=Nc1ccc(Nc2ccccc2)cc1)c1ccc2ccccc2c1 | inconclusive: 17.8 µM [inhibitor, single point]
Cc1ccc2[nH]c3c(c2c1)CN(C(=O)CN1C[C@@H](C)O[C@@H](C)C1)CC3 | inactive
Cc1ccc(N=c2c([N+](=O)[O-])nn(-c3ccc(Cl)cc3)n2O)cc1C | inactive
O=C(Nc1ccccc1C(=O)O)c1ccc(NC(=O)C2CC2)cc1 | active: 5.01 µM
Cc1ccc(CN2CC(C(=O)Nc3ccc(C)c(S(=O)(=O)N4CCCCC4)c3)CC2=O)cc1 (stereo unspecified) | inconclusive: 31.6 µM [inhibitor, partial curve, poor fit]
O=C(Nc1ccc(OC(F)F)cc1)Nc1cccc(C(F)(F)F)c1 | inconclusive: 35.5 µM [inhibitor, single point]
COc1ccccc1NC(=O)CSc1nnc(C)s1 | inconclusive: 10 µM [activator, partial curve, poor fit]
O=C(Nc1ccc(CN2CCOCC2)cc1)c1ccc(-c2cc(Cl)ccc2Cl)o1 | inconclusive: 29.1 µM [inhibitor, single point]
O=C1c2nccnc2C(=O)N1Cc1ccccc1 | inconclusive: 5.01 µM [activator, partial curve, poor fit]
O=C(Nc1nc2ccccc2s1)c1ccc2c(c1)OCO2 | inconclusive: 3.16 µM [inhibitor, partial curve, poor fit]
C=CCN=C1SC(C)(C)C(=O)N1S(=O)(=O)c1ccc(C)cc1 | inactive
CC1CCN(CC(=O)NC(=O)NCc2ccccc2)CC1 | inconclusive: 20 µM [activator, single point]
COc1ccc(/C=N/NC(=O)c2cccnc2)cc1CN1CCN(c2ccc(F)cc2)CC1 | inconclusive: 35.5 µM [inhibitor, single point]
CCOC(=O)C1(Cc2cccc(OC)c2)CCN(Cc2cccn2-c2nccs2)CC1 | inconclusive: 10 µM [inhibitor, partial curve, poor fit]
Cc1cc(NC(=O)C(C)SCC(=O)Nc2nnc(CC(C)C)s2)no1 (stereo unspecified) | inactive
O=C(c1cc(-c2ccc(Br)cc2)on1)N1CCCCCC1 | inconclusive: 1.12 µM [activator, partial curve, poor fit]
CN1C[C@@H]2C[C@@H](c3cccn3-c3ccccn3)N3CCC[C@@]23C1=O | inactive
O=C(O)c1cnn2c1NC(c1ccc(F)cc1)CC2C(F)(F)F (stereo unspecified) | inconclusive: 5.62 µM [activator, full curve, poor fit]
O=C(N/N=C/c1cc2c(cc1[N+](=O)[O-])OCO2)c1ccc2c(c1)OCO2 | inactive

Among those listed so far, these contain bromine:
Compound | Potency
Oc1c(Cl)cc(Cl)cc1CNc1ccc(Br)cn1 | inactive
O=C(c1cc(-c2ccc(Br)cc2)on1)N1CCCCCC1 | inconclusive: 1.12 µM [activator, partial curve, poor fit]

(cont.)

Compound | Potency
Cc1ccnc(NC(=O)CCCc2ccc(N(CCCl)CCCl)cc2)n1 | inconclusive: 35.5 µM [inhibitor, single point]
CN1CCN(c2ccc([N+](=O)[O-])c(Sc3ccccn3)c2)CC1 | inactive
O=S(=O)(/N=C(/Nc1ccccn1)c1ccc(Cl)cc1)c1ccc(Cl)cc1 | inactive
CC(=O)Oc1c(S(=O)(=O)c2ccc(C)cc2)c(C)nn1C(C)(C)C | inconclusive: 20 µM [inhibitor, partial curve, poor fit]
Cc1ccccc1CNC(=O)Cc1ccccc1[N+](=O)[O-] | inconclusive: 3.55 µM [activator, partial curve, poor fit]
Cc1cc(Cl)ccc1OCCCC(=O)NCc1cccs1 | inconclusive: 35.5 µM [inhibitor, single point]
CCC(CC)C(=O)Nc1cc(C)cc(C)c1 | inconclusive: 2.82 µM [inhibitor, partial curve, poor fit]
Cc1ccc(CSCC(=O)N2CCN(c3ccc(F)cc3)CC2)cc1 | inactive
CC(C)Cn1c(SCC(=O)c2c(N)n(C)c(=O)n(C)c2=O)nc2ccccc21 | inactive
CC(C)(C)C(=O)Nc1ccc(/C=C/C(=O)c2ccco2)cc1 | inconclusive: 2.24 µM [inhibitor, partial curve, poor fit]
O=C(COC(=O)c1ccccc1Br)NCc1cccs1 | inconclusive: 0.631 µM [activator, full curve]
Cc1ccc(-c2nn(-c3ccccc3)cc2/C=N/O)cc1 | inconclusive: 14.1 µM [inhibitor, partial curve, poor fit]
COc1ccccc1C(=O)NCC1CCN(c2ccc(S(=O)(=O)N3CCOCC3)cc2)CC1 | inactive
COc1ccccc1NS(=O)(=O)c1cc(C)ccc1C | active: 10 µM
C=CCc1ccc(OCCOCCOc2ccccc2[N+](=O)[O-])c(OC)c1 | inconclusive: 0.282 µM [inhibitor, partial curve, poor fit]
O=C1OCc2ccc(NC(=O)C3CC3)cc21 | inconclusive: 5.01 µM [activator, partial curve, poor fit]
COc1ccccc1NC(=O)CSc1nnc(CNC(=O)c2ccccc2F)o1 | inconclusive: 0.631 µM [activator, full curve, poor fit]
Cc1ccn(-c2cccc(-n3ccc(C)n3)n2)n1 | inconclusive: 0.92 µM [activator, full curve, poor fit]
Cc1cccc(C)c1NC(=O)CN(C)C(=O)Cc1cccc(C(F)(F)F)c1 | inactive
COc1cc(/C=C2\SC(c3ccc(C)cc3)=NC2=O)ccc1O | inactive
O=C1CN(C(=O)c2ccccc2F)c2ccccc2N1 | inactive
CCn1c(Nc2ccccc2Cl)nc2ccccc21 | inactive
O=C(N/N=C/c1ccc(O)cc1O)C(=O)N/N=C/c1ccc(O)cc1O | inconclusive: 3.16 µM [inhibitor, partial curve, poor fit]

Laid out differently: entries from further up
Compound,Potency
O=S(=O)(/N=C(/Nc1ccccn1)c1ccc(Cl)cc1)c1ccc(Cl)cc1,inactive
O=C1OCc2ccc(NC(=O)C3CC3)cc21,"inconclusive: 5.01 µM [activator, partial curve, poor fit]"
